Data reported in the supplement of paper PMC10849652.
The list shows a part of the results.

Sequences of proteins named here, by UniProt entry; tags and fusion partners are left off. A change or cut given only in a name is not applied to a line headed by its entry.
UniProt Q9HCG7: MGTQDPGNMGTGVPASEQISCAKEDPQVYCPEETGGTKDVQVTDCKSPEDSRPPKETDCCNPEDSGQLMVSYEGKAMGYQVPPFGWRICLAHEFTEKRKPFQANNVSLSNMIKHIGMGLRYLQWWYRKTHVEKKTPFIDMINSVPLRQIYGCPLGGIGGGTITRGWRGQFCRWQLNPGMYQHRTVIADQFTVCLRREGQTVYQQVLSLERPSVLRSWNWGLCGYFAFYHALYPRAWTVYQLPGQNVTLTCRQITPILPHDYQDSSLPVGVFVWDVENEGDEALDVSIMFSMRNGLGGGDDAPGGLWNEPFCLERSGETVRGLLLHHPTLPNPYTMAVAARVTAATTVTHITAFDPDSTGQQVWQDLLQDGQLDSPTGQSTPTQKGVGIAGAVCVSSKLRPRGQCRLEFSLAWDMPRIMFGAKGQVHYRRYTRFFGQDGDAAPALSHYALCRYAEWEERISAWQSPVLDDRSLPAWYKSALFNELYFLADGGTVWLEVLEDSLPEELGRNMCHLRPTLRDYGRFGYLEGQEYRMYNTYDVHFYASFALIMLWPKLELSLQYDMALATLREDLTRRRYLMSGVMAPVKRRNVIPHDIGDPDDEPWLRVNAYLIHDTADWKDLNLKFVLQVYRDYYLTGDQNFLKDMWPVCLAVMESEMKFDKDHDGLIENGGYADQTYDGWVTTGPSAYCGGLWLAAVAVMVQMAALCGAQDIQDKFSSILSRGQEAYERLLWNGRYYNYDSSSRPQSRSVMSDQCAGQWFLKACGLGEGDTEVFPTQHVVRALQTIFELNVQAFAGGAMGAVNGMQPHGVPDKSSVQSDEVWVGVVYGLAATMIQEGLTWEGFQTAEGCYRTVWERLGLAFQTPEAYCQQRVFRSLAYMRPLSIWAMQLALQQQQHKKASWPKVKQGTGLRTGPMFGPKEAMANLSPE
UniProt Q8IVP5: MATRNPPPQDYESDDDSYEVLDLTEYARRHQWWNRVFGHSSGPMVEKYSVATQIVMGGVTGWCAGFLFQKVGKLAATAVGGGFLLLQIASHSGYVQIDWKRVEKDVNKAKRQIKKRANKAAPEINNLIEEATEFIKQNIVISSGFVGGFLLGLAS
UniProt P48507: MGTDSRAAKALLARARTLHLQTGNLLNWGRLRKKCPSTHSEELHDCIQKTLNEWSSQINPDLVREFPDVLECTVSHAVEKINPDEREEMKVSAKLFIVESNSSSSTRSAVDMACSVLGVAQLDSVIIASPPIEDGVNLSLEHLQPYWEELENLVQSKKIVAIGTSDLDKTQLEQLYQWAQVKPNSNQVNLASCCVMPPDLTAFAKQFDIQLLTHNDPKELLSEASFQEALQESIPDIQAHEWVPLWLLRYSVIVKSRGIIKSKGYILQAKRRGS
UniProt Q06547, whole entry, looked up: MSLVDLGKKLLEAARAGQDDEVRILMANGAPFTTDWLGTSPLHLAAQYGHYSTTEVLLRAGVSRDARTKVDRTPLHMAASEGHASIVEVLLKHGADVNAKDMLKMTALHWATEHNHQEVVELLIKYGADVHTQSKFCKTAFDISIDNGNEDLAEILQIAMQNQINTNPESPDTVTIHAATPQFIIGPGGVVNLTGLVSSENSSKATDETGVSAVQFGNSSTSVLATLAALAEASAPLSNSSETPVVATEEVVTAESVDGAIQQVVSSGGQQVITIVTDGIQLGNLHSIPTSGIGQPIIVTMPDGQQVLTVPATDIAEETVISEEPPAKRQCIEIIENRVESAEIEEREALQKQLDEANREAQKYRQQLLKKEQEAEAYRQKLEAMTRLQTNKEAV
UniProt P23434: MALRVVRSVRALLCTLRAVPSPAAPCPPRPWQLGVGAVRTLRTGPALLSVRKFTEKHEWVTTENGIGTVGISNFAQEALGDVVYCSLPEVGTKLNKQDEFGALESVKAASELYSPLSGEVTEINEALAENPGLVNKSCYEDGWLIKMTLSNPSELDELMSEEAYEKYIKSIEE
UniProt Q8NB37: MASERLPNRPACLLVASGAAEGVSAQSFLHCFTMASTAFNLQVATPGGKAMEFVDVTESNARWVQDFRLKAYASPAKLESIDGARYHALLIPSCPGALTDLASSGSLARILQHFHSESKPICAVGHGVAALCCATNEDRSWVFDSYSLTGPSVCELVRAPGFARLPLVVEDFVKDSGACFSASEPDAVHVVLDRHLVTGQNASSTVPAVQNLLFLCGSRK
UniProt Q8WTR4: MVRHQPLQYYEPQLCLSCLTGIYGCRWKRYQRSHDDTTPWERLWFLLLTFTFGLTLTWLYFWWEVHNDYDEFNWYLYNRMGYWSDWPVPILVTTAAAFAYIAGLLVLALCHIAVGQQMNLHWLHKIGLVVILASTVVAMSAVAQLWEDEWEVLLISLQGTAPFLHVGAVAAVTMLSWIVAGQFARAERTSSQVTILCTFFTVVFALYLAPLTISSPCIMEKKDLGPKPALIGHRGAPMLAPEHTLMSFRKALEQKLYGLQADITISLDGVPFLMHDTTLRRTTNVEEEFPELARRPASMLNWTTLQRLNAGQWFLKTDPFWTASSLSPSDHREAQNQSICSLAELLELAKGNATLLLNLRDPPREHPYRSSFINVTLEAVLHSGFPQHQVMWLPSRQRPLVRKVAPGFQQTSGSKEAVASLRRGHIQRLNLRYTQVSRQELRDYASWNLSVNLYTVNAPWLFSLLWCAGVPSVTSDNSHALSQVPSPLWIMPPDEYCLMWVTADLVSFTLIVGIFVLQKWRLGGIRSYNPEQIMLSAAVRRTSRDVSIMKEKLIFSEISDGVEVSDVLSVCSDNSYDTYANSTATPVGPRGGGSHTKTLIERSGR
UniProt A2VDF0: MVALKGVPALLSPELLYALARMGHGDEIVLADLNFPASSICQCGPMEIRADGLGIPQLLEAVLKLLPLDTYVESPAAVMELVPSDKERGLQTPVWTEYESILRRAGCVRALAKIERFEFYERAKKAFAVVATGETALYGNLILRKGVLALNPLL
UniProt Q9C0B1, whole entry, looked up: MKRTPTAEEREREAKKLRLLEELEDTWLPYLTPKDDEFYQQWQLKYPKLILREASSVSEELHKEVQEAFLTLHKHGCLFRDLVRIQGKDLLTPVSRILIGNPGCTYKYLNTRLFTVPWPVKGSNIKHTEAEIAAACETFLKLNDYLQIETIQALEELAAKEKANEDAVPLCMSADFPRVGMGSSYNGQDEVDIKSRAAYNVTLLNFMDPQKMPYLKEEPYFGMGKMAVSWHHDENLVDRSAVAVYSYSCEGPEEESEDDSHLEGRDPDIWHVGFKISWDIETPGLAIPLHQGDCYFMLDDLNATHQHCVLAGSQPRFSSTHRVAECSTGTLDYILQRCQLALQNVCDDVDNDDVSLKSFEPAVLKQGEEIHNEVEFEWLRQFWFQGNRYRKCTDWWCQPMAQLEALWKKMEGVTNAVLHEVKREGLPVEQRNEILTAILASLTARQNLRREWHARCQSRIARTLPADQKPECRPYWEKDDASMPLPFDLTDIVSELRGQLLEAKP
UniProt Q96AE4: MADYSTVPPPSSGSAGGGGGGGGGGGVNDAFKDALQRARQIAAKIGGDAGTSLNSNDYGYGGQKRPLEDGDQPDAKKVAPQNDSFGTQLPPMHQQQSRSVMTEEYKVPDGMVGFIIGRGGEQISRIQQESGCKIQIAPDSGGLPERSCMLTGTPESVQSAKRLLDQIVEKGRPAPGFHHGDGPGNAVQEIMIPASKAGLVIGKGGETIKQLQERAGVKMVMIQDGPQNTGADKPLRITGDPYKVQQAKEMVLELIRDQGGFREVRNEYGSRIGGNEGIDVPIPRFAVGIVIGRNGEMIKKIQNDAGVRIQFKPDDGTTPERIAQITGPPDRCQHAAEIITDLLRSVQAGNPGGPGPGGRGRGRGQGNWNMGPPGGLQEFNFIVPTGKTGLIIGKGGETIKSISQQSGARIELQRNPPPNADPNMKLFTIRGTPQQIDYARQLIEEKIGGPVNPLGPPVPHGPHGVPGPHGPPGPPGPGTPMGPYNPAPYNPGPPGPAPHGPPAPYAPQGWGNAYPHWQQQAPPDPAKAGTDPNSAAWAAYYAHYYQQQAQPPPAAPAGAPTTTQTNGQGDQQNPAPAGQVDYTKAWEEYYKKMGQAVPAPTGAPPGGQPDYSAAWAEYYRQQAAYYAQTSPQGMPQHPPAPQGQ
UniProt O75600: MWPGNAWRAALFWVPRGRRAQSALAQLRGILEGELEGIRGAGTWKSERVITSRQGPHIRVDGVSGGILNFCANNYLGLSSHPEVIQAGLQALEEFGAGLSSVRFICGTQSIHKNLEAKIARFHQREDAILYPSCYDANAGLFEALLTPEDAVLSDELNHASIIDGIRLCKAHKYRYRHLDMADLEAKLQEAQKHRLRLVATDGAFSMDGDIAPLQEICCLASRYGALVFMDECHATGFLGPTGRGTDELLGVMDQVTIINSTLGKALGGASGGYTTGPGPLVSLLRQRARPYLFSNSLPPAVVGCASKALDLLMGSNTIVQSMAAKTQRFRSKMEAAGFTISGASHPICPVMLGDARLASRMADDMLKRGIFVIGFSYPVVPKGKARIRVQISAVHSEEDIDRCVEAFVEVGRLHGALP
UniProt O75223: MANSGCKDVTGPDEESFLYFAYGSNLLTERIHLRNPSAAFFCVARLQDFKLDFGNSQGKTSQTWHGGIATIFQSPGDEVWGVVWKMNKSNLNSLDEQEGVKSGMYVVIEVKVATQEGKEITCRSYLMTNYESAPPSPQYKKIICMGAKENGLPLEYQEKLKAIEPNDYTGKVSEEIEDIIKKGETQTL
UniProt Q6ZNA5: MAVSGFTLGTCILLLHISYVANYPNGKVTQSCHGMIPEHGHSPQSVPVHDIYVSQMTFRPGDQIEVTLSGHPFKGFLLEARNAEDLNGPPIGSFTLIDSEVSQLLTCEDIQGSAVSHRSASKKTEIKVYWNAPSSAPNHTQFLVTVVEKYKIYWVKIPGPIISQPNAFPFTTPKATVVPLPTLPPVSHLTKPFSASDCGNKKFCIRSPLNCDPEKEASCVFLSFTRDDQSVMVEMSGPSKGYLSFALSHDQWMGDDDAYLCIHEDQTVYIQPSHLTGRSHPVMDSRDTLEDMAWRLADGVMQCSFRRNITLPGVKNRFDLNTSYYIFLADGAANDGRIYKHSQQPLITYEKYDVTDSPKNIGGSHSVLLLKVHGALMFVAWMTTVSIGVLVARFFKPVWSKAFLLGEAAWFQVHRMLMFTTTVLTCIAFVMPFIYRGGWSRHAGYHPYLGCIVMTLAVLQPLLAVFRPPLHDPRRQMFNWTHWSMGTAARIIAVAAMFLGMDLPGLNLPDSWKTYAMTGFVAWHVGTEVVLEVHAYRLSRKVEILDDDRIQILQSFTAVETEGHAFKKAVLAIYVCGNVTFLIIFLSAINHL
UniProt P50395: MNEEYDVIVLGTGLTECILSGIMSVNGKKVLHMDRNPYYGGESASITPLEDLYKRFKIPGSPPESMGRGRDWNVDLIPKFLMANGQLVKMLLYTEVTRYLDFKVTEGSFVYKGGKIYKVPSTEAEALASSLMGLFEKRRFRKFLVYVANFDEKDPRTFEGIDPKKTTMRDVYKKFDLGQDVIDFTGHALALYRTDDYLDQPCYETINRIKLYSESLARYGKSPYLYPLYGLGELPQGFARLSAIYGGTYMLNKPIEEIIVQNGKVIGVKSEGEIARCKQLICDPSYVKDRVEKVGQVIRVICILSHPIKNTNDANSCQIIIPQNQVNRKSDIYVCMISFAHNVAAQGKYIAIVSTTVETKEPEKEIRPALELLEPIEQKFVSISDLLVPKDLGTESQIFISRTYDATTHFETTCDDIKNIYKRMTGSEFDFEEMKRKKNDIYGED
UniProt Q13283, whole entry, looked up: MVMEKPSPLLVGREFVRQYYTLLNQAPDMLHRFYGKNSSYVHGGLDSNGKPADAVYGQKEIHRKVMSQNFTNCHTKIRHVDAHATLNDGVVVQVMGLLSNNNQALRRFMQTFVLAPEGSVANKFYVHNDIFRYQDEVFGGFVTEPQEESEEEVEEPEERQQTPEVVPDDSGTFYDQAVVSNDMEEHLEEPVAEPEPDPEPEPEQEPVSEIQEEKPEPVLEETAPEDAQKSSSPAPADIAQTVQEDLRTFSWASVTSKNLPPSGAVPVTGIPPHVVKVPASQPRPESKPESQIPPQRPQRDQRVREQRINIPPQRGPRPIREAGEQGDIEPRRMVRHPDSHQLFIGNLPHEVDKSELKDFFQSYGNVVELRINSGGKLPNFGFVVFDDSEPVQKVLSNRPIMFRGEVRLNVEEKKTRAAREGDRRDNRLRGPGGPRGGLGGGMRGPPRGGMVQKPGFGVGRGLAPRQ
UniProt P51570: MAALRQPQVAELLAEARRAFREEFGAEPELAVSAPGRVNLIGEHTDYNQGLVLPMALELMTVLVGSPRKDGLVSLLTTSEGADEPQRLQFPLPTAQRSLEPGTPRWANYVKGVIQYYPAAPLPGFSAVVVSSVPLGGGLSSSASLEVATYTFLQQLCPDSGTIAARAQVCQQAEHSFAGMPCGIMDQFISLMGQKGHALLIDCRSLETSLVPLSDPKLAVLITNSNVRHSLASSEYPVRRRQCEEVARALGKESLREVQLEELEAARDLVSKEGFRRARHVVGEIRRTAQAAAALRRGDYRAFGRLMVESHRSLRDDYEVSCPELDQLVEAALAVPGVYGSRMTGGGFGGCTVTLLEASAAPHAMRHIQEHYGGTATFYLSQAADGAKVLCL

Key:
Experiment in all cases: log2 fold change, soluble protein after heating vs DMSO (PISA); higher = thermal stabilisation; K562 cells, 10 uM, 30 min; active = over 0.2 and 3.5 SD of the protein, either way, in both replicates (recomputed)
[1] = compound: C1=CC=C(C=C1)[C@H](COC2=CC3=C(C=C2)NC(=O)N3)NC(=O)C4=CC=CN(C4=O)CC5=CC(=C(C=C5)F)F
In short: (§1)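 Soluble protein was defined as the supernatant after 21,000xg for 90 min. It came from K562 cells at 2×10^6 cells/mL given 10 μM compound for 30 min, heated in aliquots for 3 min across 48°C-58°C, pooled, and extracted in PBS with 0.5% NP-40 at 4°C, and was quantified by TMTpro 16plex LC-MS/MS with equalised channel sums. Thermal stability against control samples, from duplicates, is reported as log2 fold change.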

[2] = compound: CC1=C(SC2=C1C(=N[C@H](C3=NN=C(N32)C)CC(=O)N)C4=CC=C(C=C4)Cl)C
In short: as §1

[3] = compound: CC1=C2C(=CC=C1)N=C(N(C2=O)C3=CC=CC=C3C)CN4C=NC5=C(N=CN=C54)N
In short: as §1

[4] = compound: Cc1sc2c(c1C)C(c1ccc(Cl)cc1)=N[C@@H](CC(=O)OC(C)(C)C)c1nnc(C)n1-2
In short: as §1

[5] = compound: c1ccc([C@@H]2C[C@H]2NC2CCNCC2)cc1
In short: as §1

Measured: log2 fold change

GBA2 (UniProt Q9HCG7)
inactive: [1] 0.099 | [2] 0.012 | [3] 0.017 | [4] 0.034 | [5] 0.023

GALC (UniProt P54803)
inactive: [1] 0.046 | [2] 0.055 | [3] 0.055 | [4] -0.043 | [5] 0.006

FUNDC1 (UniProt Q8IVP5)
inactive: [1] 0.052

GAN (UniProt Q9H2C0)
inactive: [1] -0.052 | [2] 0.1 | [3] 0.04 | [4] 0.001 | [5] 0.008

GCLM (UniProt P48507)
inactive: [1] -0.014 | [2] 0.062 | [3] 0.108 | [4] 0 | [5] -0.053

GALNT12 (UniProt Q8IXK2)
inactive: [1] -0.062 | [2] 0.08 | [3] -0.021 | [4] 0.021 | [5] -0.047

GABPB1 isoform 3 (UniProt Q06547)
inactive: [1] -0.001 | [2] -0.031 | [3] 0.263 | [4] -0.236 | [5] -0.134

GCSH (UniProt P23434)
inactive: [1] 0.029 | [2] -0.004 | [3] -0.043 | [4] 0 | [5] 0.043

FNTA (UniProt P49354)
inactive: [1] -0.009 | [2] -0.024 | [3] 0.02 | [4] 0.04 | [5] -0.009

GATD1 (UniProt Q8NB37)
inactive: [1] -0.038 | [2] 0.043 | [3] 0.019 | [4] 0.019 | [5] 0.007

GDPD5 (UniProt Q8WTR4)
inactive: [1] -0.052

GDE1 (UniProt Q9NZC3)
inactive: [1] -0.019 | [2] 0.037 | [3] 0.025 | [4] -0.078 | [5] -0.055

GBE1 (UniProt Q04446)
inactive: [1] -0.116 | [2] 0.01 | [3] -0.009 | [4] 0.03 | [5] 0.008

FUOM (UniProt A2VDF0)
inactive: [1] 0.043 | [2] 0.099 | [3] -0.088 | [4] -0.273 | [5] -0.076

GGT7 (UniProt Q9UJ14)
inactive: [1] 0.028 | [2] -0.055 | [3] -0.069 | [4] 0.026 | [5] 0.032

Copied from the listing (five entries):
GDPD5 (UniProt Q8WTR4)
inactive: [1] -0.052

GDE1 (UniProt Q9NZC3)
inactive: [1] -0.019 | [2] 0.037 | [3] 0.025 | [4] -0.078 | [5] -0.055

GBE1 (UniProt Q04446)
inactive: [1] -0.116 | [2] 0.01 | [3] -0.009 | [4] 0.03 | [5] 0.008

FUOM (UniProt A2VDF0)
inactive: [1] 0.043 | [2] 0.099 | [3] -0.088 | [4] -0.273 | [5] -0.076

GGT7 (UniProt Q9UJ14)
inactive: [1] 0.028 | [2] -0.055 | [3] -0.069 | [4] 0.026 | [5] 0.032

Following part

GALNT1 (UniProt Q10472)
inactive: [1] -0.034 | [2] 0.069 | [3] -0.002 | [4] -0.01 | [5] -0.007

FTO (UniProt Q9C0B1)
inactive: [1] 0.023 | [2] 0.047 | [3] 0.011 | [4] -0.007 | [5] 0.043

FUBP1 (UniProt Q96AE4)
inactive: [1] -0.039 | [2] -0.065 | [3] -0.179 | [4] -0.026 | [5] 0.032

GCAT isoform 2 (UniProt O75600)
inactive: [1] 0.028 | [2] 0.169 | [3] 0.056 | [4] 0.018 | [5] -0.187

GGCT (UniProt O75223)
inactive: [1] -0.046 | [2] 0.027 | [3] 0.021 | [4] -0.01 | [5] -0.026

FRRS1 (UniProt Q6ZNA5)
inactive: [1] -0.016 | [2] 0.007 | [3] 0.007 | [4] 0.008 | [5] 0.015

GDI2 (UniProt P50395)
inactive: [1] -0.039 | [2] 0.029 | [3] 0.013 | [4] -0.029 | [5] -0.035

G3BP1 (UniProt Q13283)
inactive: [1] 0.074 | [2] -0.101 | [3] -0.125 | [4] 0.193 | [5] 0

GAB1 isoform 2 (UniProt Q13480)
inactive: [1] -0.019 | [2] -0.024 | [3] -0.065 | [4] 0.09 | [5] 0.007

GATC (UniProt O43716)
inactive: [1] 0.032 | [2] 0.046 | [3] 0.03 | [4] -0.088 | [5] -0.009

GALK1 isoform 2 (UniProt P51570)
inactive: [1] -0.02 | [2] 0.016 | [3] -0.065 | [4] -0.024 | [5] -0.007
